HELM strings list residues between dots; [ac] is acetyl, [am] amide, other brackets name non-standard units.
Assay: general procedure: Fmoc solid-phase peptide synthesis; Rink amide MBHA resin, initial loading 0.61 mmol/g; DCC, HBTU, HOBT, DIEA (listed as peptide synthesis reagents)
Conditions: whole synthesis, RP-HPLC on analytical Vydac C18 column

| Substance | crude HPLC purity [%] |
| --- | --- |
| PEPTIDE1{W.R.W.R.W.R.[am]}$$$$V2.0 | 95 |
| PEPTIDE1{W.R.W.R.[am]}$$$$V2.0 | 95 |
